Data published in PubChem BioAssay AID2685 (National Center for Advancing Translational Sciences (NCATS), 2010).
The other results are listed elsewhere or left out. The main result of the screen is listed elsewhere. These columns were measured beside it and carry no call. Most of these compounds were active or inconclusive in the main read-out, so they are no random draw. Potencies come from curve fits of mixed quality, noted in brackets.

Test: qHTS Assay for Lipid Storage Modulators in Drosophila S3 Cells;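 for cell number change: cells counted by Cell Tracker Red CMTPX staining in the red channel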
Conditions: BODIPY lipid droplet fluorescence, 18-24 h; for cell number change: measured here: cell count max response, cells fed with added oleic acid
Procedure, shortened: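 Laser-scanning cytometry quantifies lipid droplet accumulation (500–530 nm total intensity; droplet/cell object ratio) in oleic acid-fed (400 uM added) Drosophila S3 cells treated with a concentration series. 20 uM Triacsin C defined 100% inhibition.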

[1] = measured here: cell number channel AC50, cells fed with added oleic acid
[2] = measured here: lipid fluorescence (Fed channel) AC50, cells fed with added oleic acid

Row | SMILES | cell number change [%] | AC50 [1] | AC50 [2]
1 | CN(Cc1cccs1)c1ncnc2sccc12 | -89.5 | 29.1 µM [falling, single point] | 29.1 µM [falling, single point]
2 | O=C(CSc1nnc(CNC(=O)c2c(F)cccc2Cl)o1)NC1CCCCC1 | -9.35 | 6.51 µM [falling, single point] | 1.46 µM [rising, full curve, poor fit]
3 | O=C(CCn1ccnc1)Nc1ccc2ccccc2c1 | 35.6 | 18.4 µM [rising, single point] | 4.11 µM [falling, partial curve]
4 | COCCNc1nc2nonc2nc1N1C[C@H]2CC[C@H]1C2 | 21 |  | 0.517 µM [rising, single point]
5 | Cc1ccnc(NC(=O)c2ccc(NS(=O)(=O)/C=C/c3ccccc3)cc2)c1 | 12.6 |  | 1.16 µM [rising, full curve]
6 | CN(CC(=O)Nc1cccc(F)c1)C(=O)CN1C(=O)NC2(CCCC2)C1=O | 15 |  | 32.6 µM [rising, single point]
7 | COC(=O)C1=CN(c2ccc(OC)cc2)C=C(C(=O)OC)C1c1ccc(C)c([N+](=O)[O-])c1 | 17.8 |  | 23.1 µM [rising, single point]
8 | Clc1ccc2c(NCc3ccccc3)ccnc2c1 | 4.17 |  | 
9 | O=C(NCC1CCCO1)/C(=C\c1ccccc1)NC(=O)c1ccccc1 (centres undefined) | -2.97 |  | 
10 | O=C(N/N=C/c1ccccc1F)c1ccc(COc2ccccc2Cl)o1 | -24.2 | 1.46 µM [rising, partial curve] | 6.51 µM [rising, single point]
11 | Cc1[nH]c(=O)[nH]c(=O)c1S(=O)(=O)N(C)Cc1ccccc1 | 5.58 |  | 
12 | CC1(C)NC(=O)N(CC(=O)N2CCN(S(=O)(=O)c3ccccc3C(F)(F)F)CC2)C1=O | 9.37 |  | 
13 | O=C(CC12CC3CC(CC(C3)C1)C2)N/N=C/c1ccncc1 | 19 |  | 0.0651 µM [rising, full curve, poor fit]
14 | O=C(NC1CCCC1)c1cccc(Oc2ccccc2)c1 | 12 |  | 
15 | CC1CCN(C(=O)c2ccc(CSc3nc4ccncc4n3Cc3ccc(F)cc3)cc2)CC1 | -0.104 |  | 14.6 µM [rising, partial curve]
16 | CCCCCCSc1ccc([C@@H]2[C@H]3C(=O)N(C)C(=O)[C@H]3[C@]3(C(=O)OC)CCCCN23)cc1OC | -39.9 | 10.3 µM [falling, partial curve] | 6.51 µM [falling, partial curve]
17 | CC(C)c1nc(N2CCOCC2)c(C#N)c2c1CCC2 | -25.8 |  | 32.6 µM [falling, single point]
18 | CC1CC(C)(C)CC2(C1)NC(=O)N(CC(=O)Nc1ccc3[nH]c(=O)[nH]c3c1)C2=O (centres undefined) | -42.6 | 29.1 µM [falling, single point] | 16.4 µM [falling, single point]
19 | CCOC(=O)C(=O)Nc1ccccc1C(=O)NCc1ccccc1 | -6.37 |  | 
20 | CCCc1cc(=O)[nH]c(SCc2cccc(C)c2)n1 | -31.5 | 16.4 µM [falling, single point] | 18.4 µM [falling, single point]

Row | SMILES | cell number change [%] | AC50 [1] | AC50 [2]
21 | C=CCn1c(SCC(N)=O)nnc1-c1cnccn1 | -3.53 |  | 3.26 µM [falling, partial curve]
22 | CC1=NN(c2ccccc2)C(=O)C1N=Nc1ccc(N)cc1 (centres undefined) | -91 | 18.4 µM [falling, partial curve] | 14.6 µM [falling, partial curve]
23 | CC(C)(C)[C@H]1C=C(C(=O)N2CCN(Cc3ccccc3)CC2)O[C@@H](OCc2ccc(CO)cc2)C1 | -19.4 |  | 8.2 µM [falling, partial curve]
24 | COc1ccccc1N(CC(=O)Nc1ccccc1)S(=O)(=O)c1cccs1 | -22.5 |  | 32.6 µM [rising, single point]
25 | CC(=O)N/N=C(\C)c1cccc(NC(=O)c2cccs2)c1 | 9.56 |  | 3.26 µM [rising, full curve]
26 | O=C1/C(=C/c2ccc(F)cc2)Oc2cc(OC(=O)N3CCOCC3)ccc21 | -48.5 | 5.17 µM [falling, full curve] | 
27 | CCOc1ccc(-c2nnn(CC(=O)NCc3ccccc3)n2)cc1 | 30.4 |  | 0.259 µM [rising, full curve]
28 | Cc1nc(Sc2nnnn2C)c2c3c(sc2n1)CCC3 | -25.3 |  | 4.11 µM [rising, single point]
29 | O=C(CNS(=O)(=O)c1ccccc1)N1CCc2ccccc2C1 | -8.21 |  | 4.11 µM [rising, full curve]
30 | COc1ccc([N+](=O)[O-])cc1N(CC(=O)Nc1ccccc1C(=O)N1CCOCC1)S(C)(=O)=O | 6.81 |  | 
31 | CCCCCC(C)n1[nH]c(=O)cc1N (centres undefined) | -37.5 | 1.03 µM [falling, full curve] | 6.51 µM [falling, single point]
32 | CN1CCN(S(=O)(=O)c2cccc(S(=O)(=O)c3ccc(Cl)cc3)c2)CC1 | -2.49 |  | 1.64 µM [rising, partial curve]
33 | Cc1ccc(NC(=O)CSc2nnc(CCC(=O)O)c(=O)[nH]2)cc1 | -33.6 |  | 16.4 µM [falling, single point]
34 | O=Cc1cc(CCC(=O)O)ccc1O | 31.7 |  | 
35 | O=C(NCCN1CCOCC1)N1CCOCC1 | -16.7 |  | 0.82 µM [falling, full curve, poor fit]
36 | CC(C)CCN(C(=O)c1cn2ccccc2n1)c1c(N)n(Cc2ccccc2)c(=O)[nH]c1=O | 55 | 8.2 µM [rising, partial curve] | 3.66 µM [rising, partial curve]
37 | CC(C)c1nnc2c(N(C)S(=O)(=O)c3ccccc3)nc3ccccc3n12 | 24 |  | 13 µM [falling, partial curve]
38 | CCOc1ccc(S(=O)(=O)N2CCC(C(=O)NCc3ccco3)CC2)cc1 | 18.5 |  | 29.1 µM [rising, single point]
39 | Cc1cc(/C=C2\NC(=O)N(Cc3ccc(Cl)cc3)C2=O)c(C)n1C | -1.09 |  | 

Entries shown so far containing a furan ring, fused or not, in the order listed:
Row | SMILES | cell number change [%] | AC50 [1] | AC50 [2]
10 | O=C(N/N=C/c1ccccc1F)c1ccc(COc2ccccc2Cl)o1 | -24.2 | 1.46 µM [rising, partial curve] | 6.51 µM [rising, single point]
38 | CCOc1ccc(S(=O)(=O)N2CCC(C(=O)NCc3ccco3)CC2)cc1 | 18.5 |  | 29.1 µM [rising, single point]
